Data as given in the supplement of paper PMC3334620.
The full ranking holds about 33,000 sequences; the median of “E-score (-0.5 to 0.5)” is about -0.015, and the highest 2% start at about 0.3. Some of the results follow.

Target: T1, Abf1 (UniProt P14164)
T1 sequence: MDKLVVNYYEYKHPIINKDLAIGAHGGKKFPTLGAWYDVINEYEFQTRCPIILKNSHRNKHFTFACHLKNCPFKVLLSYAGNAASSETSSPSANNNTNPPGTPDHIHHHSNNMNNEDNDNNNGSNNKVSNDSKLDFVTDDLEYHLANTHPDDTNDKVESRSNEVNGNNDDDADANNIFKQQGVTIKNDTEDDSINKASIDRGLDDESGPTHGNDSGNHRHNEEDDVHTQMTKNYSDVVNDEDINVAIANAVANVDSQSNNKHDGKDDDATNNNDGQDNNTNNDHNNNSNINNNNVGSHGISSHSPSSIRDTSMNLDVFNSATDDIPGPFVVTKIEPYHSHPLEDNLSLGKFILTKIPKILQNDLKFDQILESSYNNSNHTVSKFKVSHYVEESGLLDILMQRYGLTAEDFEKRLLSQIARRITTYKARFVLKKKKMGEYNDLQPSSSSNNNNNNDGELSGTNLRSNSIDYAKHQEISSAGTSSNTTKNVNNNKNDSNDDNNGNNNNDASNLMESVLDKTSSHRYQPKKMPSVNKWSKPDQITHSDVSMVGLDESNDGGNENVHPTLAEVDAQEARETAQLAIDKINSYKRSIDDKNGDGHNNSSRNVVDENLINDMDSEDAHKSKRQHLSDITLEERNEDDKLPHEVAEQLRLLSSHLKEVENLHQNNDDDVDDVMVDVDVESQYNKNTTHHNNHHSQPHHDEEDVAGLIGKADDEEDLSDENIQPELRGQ
Test: PBM E-score (8-mer binding enrichment) (E-score (-0.5 to 0.5)); higher = stronger / more preferred TF binding
Settings: protein concentration: 200 nM; construct: GST-full length
Procedure: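 Universal 'all 10-mer' protein binding microarrays (Agilent AMADID 015681) probed with GST-tagged S. cerevisiae TFs (full-length or DBD) made by in vitro transcription/translation (PURExpress), about 100-200 nM. Bound TF was detected with fluorescent anti-GST. Each ungapped 8-mer (which stands for itself and its reverse complement) is scored by the PBM enrichment score (E-score), a modified Wilcoxon-Mann-Whitney statistic from -0.5 to +0.5, computed with the Universal PBM Analysis Suite. Scale: above 0.35 generally sequence-specific binding.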

Sequence | PBM E-score
GACCTGAC | -0.103
AGAGGGCG | -0.228
GTAGGAGA | -0.224
AAAGACAG | -0.0157
GGCATAAA | -0.105
CCCAGTAG | 0.0529
GAGATCGC | 0.164
CCATGGTA | -0.0243
CATCCTGA | 0.082
ACGGTGAG | 0.161
CCTCTGAG | -0.215
TACCGCAA | 0.0695
CCCCCAAA | -0.276
ACATCCCC | -0.0404
ATGCCCCG | -0.126
AGAAACGA | 0.183
ACACGTTG | 0.0729
TCTGCGAA | -0.0842
CGAGCAAG | -0.202
ACAGTTCT | -0.0751
GCGATTGA | -0.0308
CTACGCGC | 0.0294

Taken from above:
In PBM E-score, GACCTGAC reads -0.103
In PBM E-score, ACACGTTG reads 0.0729
In PBM E-score, CCCCCAAA reads -0.276
In PBM E-score, ACATCCCC reads -0.0404

Remaining list, next part

Sequence | PBM E-score
GCGGTGAC | 0.212
TAAGGCCA | -0.104
ACGTGTCA | 0.186
CTACTCAA | 0.125
AAGGCACC | -0.189
CCGTGTAA | 0.217
CCACAAGC | -0.321
CAACGCCG | 0.107
ACTCAGTA | 0.0588
GACTCAGC | -0.124
AACAGAAG | -0.0743
GCGGGGCA | -0.12
CAGCTTTC | -0.00915
CGCCGTAC | 0.315
GACGACCC | -0.162
GCATCTAC | -0.0213
CTGCTCTC | -0.174
ACTCCGAG | 0.0397
ACTCAATG | -0.08
ACGATTCT | 0.19
GTTTTATA | 0.234
GAGGGTAA | -0.123

Sequence | PBM E-score
ACCTCGGG | -0.155
CATTTATC | 0.222
AACTCCCT | -0.105
ACAAAACC | 0.145
GACAGATC | 0.123
ATGGGTTC | -0.0947
AGGGTATA | -0.0651
TCAAATAA | 0.208
ATTTCTCA | 0.128
CAGGTCGC | -0.00575
CGGGGTAC | -0.179
ACTGTAGA | -0.0363
AAGCTTTA | -0.159
CTCCTTTC | -0.201
CAGCGTAC | -0.194
GGGTCGAC | -0.0894
CTCCGGCA | 0.105
AATGTCGC | 0.219
ACACTTCC | -0.151
GACCCAAC | -0.13
CCAAGGCA | -0.121
ACCGTGTC | 0.0295

Sequence | PBM E-score
CCATCACC | -0.0178
GGTCGCAA | -0.0813
GCGGGGGA | -0.353
ATCACTTG | 0.355
ATATAGGA | -0.114
GCCTATCA | 0.0867
CGTATAAA | 0.417
ATGTGATC | 0.18
GAGACGAA | 0.0822
GCGTCTCC | 0.0243
CGTGTTCC | 0.0539
CGAGACCC | -0.137
CTTCGTTC | -0.00248
CACCTGGC | -0.119
GAGTAGGC | -0.173
ATACCACA | -0.0671
ATACGGTA | 0.319
GCGGTAGC | 0.0709
ATAATGAT | 0.344
GAAAAAAC | 0.0978
